We go through four substances from paper PMC3834822.

By UniProt entry, the sequences of proteins in these tests, tags left out. Residues count along the entry.
UniProt P72525, residues 1-488: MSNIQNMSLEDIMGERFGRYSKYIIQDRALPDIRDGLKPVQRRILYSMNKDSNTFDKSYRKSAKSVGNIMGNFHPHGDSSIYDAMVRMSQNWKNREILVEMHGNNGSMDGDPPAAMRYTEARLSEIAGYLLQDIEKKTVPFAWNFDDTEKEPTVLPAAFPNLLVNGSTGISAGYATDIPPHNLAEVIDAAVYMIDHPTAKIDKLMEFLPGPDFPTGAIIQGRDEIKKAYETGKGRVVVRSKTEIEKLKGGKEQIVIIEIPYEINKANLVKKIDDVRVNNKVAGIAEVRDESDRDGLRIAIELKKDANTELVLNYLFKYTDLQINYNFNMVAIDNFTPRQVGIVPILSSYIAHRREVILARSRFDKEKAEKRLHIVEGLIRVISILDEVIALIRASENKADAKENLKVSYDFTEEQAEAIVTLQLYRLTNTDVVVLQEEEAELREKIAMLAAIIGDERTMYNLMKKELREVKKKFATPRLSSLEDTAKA
UniProt Q59961: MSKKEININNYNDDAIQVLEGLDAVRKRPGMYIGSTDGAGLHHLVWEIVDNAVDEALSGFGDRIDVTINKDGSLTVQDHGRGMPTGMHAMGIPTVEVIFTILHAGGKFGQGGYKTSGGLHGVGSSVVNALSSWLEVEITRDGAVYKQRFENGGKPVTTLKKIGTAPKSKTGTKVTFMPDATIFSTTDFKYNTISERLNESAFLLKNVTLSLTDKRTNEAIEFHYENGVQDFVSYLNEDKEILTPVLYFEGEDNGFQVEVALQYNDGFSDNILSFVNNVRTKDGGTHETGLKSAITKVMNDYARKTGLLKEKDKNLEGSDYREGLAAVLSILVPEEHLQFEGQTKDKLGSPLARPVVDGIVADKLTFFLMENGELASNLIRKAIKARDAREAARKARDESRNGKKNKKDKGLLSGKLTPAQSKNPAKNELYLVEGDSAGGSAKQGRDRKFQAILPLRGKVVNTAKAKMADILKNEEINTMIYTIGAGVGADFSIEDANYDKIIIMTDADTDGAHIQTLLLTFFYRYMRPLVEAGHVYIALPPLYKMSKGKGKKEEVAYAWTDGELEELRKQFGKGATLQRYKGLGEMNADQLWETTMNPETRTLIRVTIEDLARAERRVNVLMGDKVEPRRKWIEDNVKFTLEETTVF

Assay [1] addresses ParC55 as it stands in the ParE-ParC55 fusion protein (Streptococcus pneumoniae) (UniProt P72525). Briefly: crystal structure; full-length ParE-ParC55 fusion protein with 34 bp V-site DNA (1:2.2 protein:DNA), MgCl2; sitting drop, 50 mM sodium citrate pH 5.0, 4-7% isopropanol; space group P4(2)2(1)2, 3.7 Å; no ATP; both purified.
In assay [2] the target is S. pneumoniae topoisomerase IV ParC55 (breakage-reunion domain of ParC) (Streptococcus pneumoniae) (UniProt P72525). Briefly: crystal structure; ParC55 / full-length ParE (1:1 molar mixture) with 26mer E-site DNA, levofloxacin and MgCl2; sitting drop, sodium cacodylate pH 6.5-7.0, room temperature; space group H32, 6.53 Å; both purified.

Results are given in words; binding and its absence hold for the method and conditions named. Some binding calls cover weakened binding; strength is not graded here.

As to “full-length ParE as it stands in the ParE-ParC55 fusion protein (from UniProt Q59961 1-647)”, in assay [1], the binding result is “binds”.

Turning to “S. pneumoniae topoisomerase IV ParC55 (breakage-reunion domain of ParC) (from UniProt P72525 1-488) (domain or fragment)”, the binding entry in assay [2] is listed as “binds”.

In the case of “S. pneumoniae topoisomerase IV ParE, full-length (N-terminally tagged) (from UniProt Q59961 1-647) (enzyme)”, in assay [2], the binding result is “binds”.

For the substance “ParC55 as it stands in the ParE-ParC55 fusion protein (from UniProt P72525 1-488) (domain or fragment)”, the binding entry in assay [1] is on record as “binds”.
